Reference: PubChem BioAssay AID188 (DTP/NCI, 2004)
The mice bore no tumour; each value counts animals alive of those treated. Counts of survivors are from the toxicity check (mostly the fifth day) where no day follows; animals may have died later. Schedule codes are those of the source, read here as Q, the interval in days (D) or hours (H), X, the number of doses. Some structures stand for samples that the source files as different forms (salt, stereo form or complex); doses refer to the form tested. Signs of the kind (2×) give the number of equal values in this list. Some entries hold several experiments; the results are listed from low to high.

Test system: CD2F1 mice, nontumored, toxicity/survival
Experiment: NCI In Vivo Anticancer Drug Screen. Data for tumor model Nontumored Animals (Toxicity Test) in CD2F1 (CDF1) mice

## NC(C/[N+]([O-])=N/O)C(=O)O (centres undefined)
dose: 0.78 mg/kg/injection, schedule: Q01DX009 (ip), vehicle: water
  survivor count: 10 of 10 (2×)
dose: 0.78 mg/kg/injection, schedule: Q04DX003 (ip), vehicle: water
  survivor count: 10 of 10 (2×)
dose: 1.57 mg/kg/injection, schedule: Q01DX009 (ip), vehicle: water
  survivor count: 10 of 10 (2×)
dose: 1.57 mg/kg/injection, schedule: Q04DX003 (ip), vehicle: water
  survivor count: 10 of 10 (2×)
dose: 3.13 mg/kg/injection, schedule: Q01DX009 (ip), vehicle: water
  survivor count: 10 of 10 (2×)
dose: 3.13 mg/kg/injection, schedule: Q04DX003 (ip), vehicle: water
  survivor count: 10 of 10 (2×)
dose: 6.25 mg/kg/injection, schedule: Q01DX009 (ip), vehicle: water
  survivor count: 10 of 10 (2×)
dose: 6.25 mg/kg/injection, schedule: Q04DX003 (ip), vehicle: water
  survivor count: 10 of 10 (2×)
dose: 8.0 mg/kg/injection, schedule: Q03HX008 (ip), vehicle: saline
  survivor count: 8 of 8
dose: 8.0 mg/kg/injection, schedule: Q03HX016 (ip), vehicle: saline
  survivor count: 8 of 8
dose: 8.0 mg/kg/injection, schedule: Q03HX024 (ip), vehicle: saline
  survivor count: 8 of 8
dose: 12.5 mg/kg/injection, schedule: Q01DX009 (ip), vehicle: water
  survivor count: 10 of 10 (2×)
dose: 12.5 mg/kg/injection, schedule: Q04DX003 (ip), vehicle: water
  survivor count: 10 of 10 (2×)
dose: 16.0 mg/kg/injection, schedule: Q01DX009 (ip), vehicle: saline
  survivor count: 8 of 8
dose: 16.0 mg/kg/injection, schedule: Q01DX009 (sc), vehicle: saline
  survivor count: 8 of 8
dose: 16.0 mg/kg/injection, schedule: Q03HX008 (ip), vehicle: saline
  survivor count: 8 of 8
dose: 16.0 mg/kg/injection, schedule: Q03HX016 (ip), vehicle: saline
  survivor count: 8 of 8
dose: 16.0 mg/kg/injection, schedule: Q03HX024 (ip), vehicle: saline
  survivor count: 8 of 8
dose: 19.4 mg/kg/injection, schedule: Q01DX009 (ip), vehicle: alkali diluted with saline
  survivor count: 5 of 5
dose: 25.0 mg/kg/injection, schedule: Q01DX009 (ip), vehicle: water
  survivor count: 10 of 10 (2×)
dose: 25.0 mg/kg/injection, schedule: Q04DX003 (ip), vehicle: water
  survivor count: 10 of 10 (2×)
dose: 31.3 mg/kg/injection, schedule: Q01DX009 (ip), vehicle: water
  survivor count: 10 of 10 (2×)
dose: 31.3 mg/kg/injection, schedule: Q04DX003 (ip), vehicle: water
  survivor count: 10 of 10 (2×)
dose: 32.0 mg/kg/injection, schedule: Q01DX009 (ip), vehicle: saline
  survivor count: 8 of 8
dose: 32.0 mg/kg/injection, schedule: Q01DX009 (sc), vehicle: saline
  survivor count: 8 of 8
dose: 32.0 mg/kg/injection, schedule: Q03HX008 (ip), vehicle: saline
  survivor count: 8 of 8
dose: 32.0 mg/kg/injection, schedule: Q03HX016 (ip), vehicle: saline
  survivor count: 8 of 8
dose: 32.0 mg/kg/injection, schedule: Q03HX024 (ip), vehicle: saline
  survivor count: 8 of 8
dose: 32.4 mg/kg/injection, schedule: Q01DX009 (ip), vehicle: alkali diluted with saline
  survivor count: 5 of 5
dose: 54.0 mg/kg/injection, schedule: Q01DX009 (ip), vehicle: alkali diluted with saline
  survivor count: 5 of 5
dose: 62.5 mg/kg/injection, schedule: Q01DX009 (ip), vehicle: water
  survivor count: 10 of 10 (2×)
dose: 62.5 mg/kg/injection, schedule: Q04DX003 (ip), vehicle: water
  survivor count: 10 of 10 (2×)
dose: 64.0 mg/kg/injection, schedule: Q01DX001 (ip), vehicle: saline
  survivor count: 8 of 8
dose: 64.0 mg/kg/injection, schedule: Q01DX009 (ip), vehicle: saline
  survivor count: 8 of 8
dose: 64.0 mg/kg/injection, schedule: Q01DX009 (oral), vehicle: saline
  survivor count: 8 of 8
dose: 64.0 mg/kg/injection, schedule: Q01DX009 (sc), vehicle: saline
  survivor count: 8 of 8
dose: 64.0 mg/kg/injection, schedule: Q03HX008 (ip), vehicle: saline
  survivor count: 8 of 8
dose: 64.0 mg/kg/injection, schedule: Q03HX016 (ip), vehicle: saline
  survivor count: 8 of 8
dose: 64.0 mg/kg/injection, schedule: Q03HX024 (ip), vehicle: saline
  survivor count: 8 of 8
dose: 64.0 mg/kg/injection, schedule: Q04DX003 (ip), vehicle: saline
  survivor count: 8 of 8
dose: 64.0 mg/kg/injection, schedule: Q04DX003 (oral), vehicle: saline
  survivor count: 8 of 8
dose: 64.0 mg/kg/injection, schedule: Q04DX003 (sc), vehicle: saline
  survivor count: 8 of 8
dose: 64.0 mg/kg/injection, schedule: Q08DX002 (ip), vehicle: saline
  survivor count: 8 of 8
dose: 90.0 mg/kg/injection, schedule: Q01DX009 (ip), vehicle: alkali diluted with saline
  survivor count: 5 of 5
dose: 125.0 mg/kg/injection, schedule: Q01DX009 (ip), vehicle: water
  survivor count: 10 of 10 (2×)
dose: 125.0 mg/kg/injection, schedule: Q03HX024 (ip), vehicle: saline
  survivor count: 7 of 8
dose: 125.0 mg/kg/injection, schedule: Q04DX003 (ip), vehicle: water
  survivor count: 10 of 10 (2×)
dose: 128.0 mg/kg/injection, schedule: Q01DX001 (ip), vehicle: saline
  survivor count: 8 of 8
dose: 128.0 mg/kg/injection, schedule: Q01DX009 (ip), vehicle: saline
  survivor count: 8 of 8
dose: 128.0 mg/kg/injection, schedule: Q01DX009 (oral), vehicle: saline
  survivor count: 8 of 8
dose: 128.0 mg/kg/injection, schedule: Q01DX009 (sc), vehicle: saline
  survivor count: 8 of 8
dose: 128.0 mg/kg/injection, schedule: Q03HX008 (ip), vehicle: saline
  survivor count: 8 of 8
dose: 128.0 mg/kg/injection, schedule: Q03HX016 (ip), vehicle: saline
  survivor count: 8 of 8
dose: 128.0 mg/kg/injection, schedule: Q04DX003 (ip), vehicle: saline
  survivor count: 8 of 8
dose: 128.0 mg/kg/injection, schedule: Q04DX003 (oral), vehicle: saline
  survivor count: 8 of 8
dose: 128.0 mg/kg/injection, schedule: Q04DX003 (sc), vehicle: saline
  survivor count: 8 of 8
dose: 128.0 mg/kg/injection, schedule: Q08DX002 (ip), vehicle: saline
  survivor count: 8 of 8
dose: 150.0 mg/kg/injection, schedule: Q01DX009 (ip), vehicle: alkali diluted with saline
  survivor count: 5 of 5
dose: 250.0 mg/kg/injection, schedule: Q01DX009 (ip), vehicle: water
  survivor count: 8 of 10 and 10 of 10
dose: 250.0 mg/kg/injection, schedule: Q04DX003 (ip), vehicle: water
  survivor count: 10 of 10 (2×)
dose: 256.0 mg/kg/injection, schedule: Q01DX001 (ip), vehicle: saline
  survivor count: 8 of 8
dose: 256.0 mg/kg/injection, schedule: Q01DX009 (ip), vehicle: saline
  survivor count: 6 of 8
dose: 256.0 mg/kg/injection, schedule: Q01DX009 (oral), vehicle: saline
  survivor count: 7 of 8
dose: 256.0 mg/kg/injection, schedule: Q01DX009 (sc), vehicle: saline
  survivor count: 8 of 8
dose: 256.0 mg/kg/injection, schedule: Q03HX008 (ip), vehicle: saline
  survivor count: 5 of 8
dose: 256.0 mg/kg/injection, schedule: Q03HX016 (ip), vehicle: saline
  survivor count: 2 of 8
dose: 256.0 mg/kg/injection, schedule: Q03HX024 (ip), vehicle: saline
  survivor count: 3 of 8
dose: 256.0 mg/kg/injection, schedule: Q04DX003 (ip), vehicle: saline
  survivor count: 8 of 8
dose: 256.0 mg/kg/injection, schedule: Q04DX003 (oral), vehicle: saline
  survivor count: 8 of 8
dose: 256.0 mg/kg/injection, schedule: Q04DX003 (sc), vehicle: saline
  survivor count: 8 of 8
dose: 256.0 mg/kg/injection, schedule: Q08DX002 (ip), vehicle: saline
  survivor count: 8 of 8
dose: 500.0 mg/kg/injection, schedule: Q01DX009 (ip), vehicle: water
  survivor count: 4 of 10 and 5 of 10
dose: 500.0 mg/kg/injection, schedule: Q04DX003 (ip), vehicle: water
  survivor count: 10 of 10 (2×)
dose: 512.0 mg/kg/injection, schedule: Q01DX001 (ip), vehicle: saline
  survivor count: 8 of 8
dose: 512.0 mg/kg/injection, schedule: Q01DX009 (ip), vehicle: saline
  survivor count: 2 of 8
dose: 512.0 mg/kg/injection, schedule: Q01DX009 (oral), vehicle: saline
  survivor count: 5 of 8
dose: 512.0 mg/kg/injection, schedule: Q01DX009 (sc), vehicle: saline
  survivor count: 3 of 8
dose: 512.0 mg/kg/injection, schedule: Q04DX003 (ip), vehicle: saline
  survivor count: 8 of 8
dose: 512.0 mg/kg/injection, schedule: Q04DX003 (oral), vehicle: saline
  survivor count: 8 of 8
dose: 512.0 mg/kg/injection, schedule: Q04DX003 (sc), vehicle: saline
  survivor count: 8 of 8
dose: 512.0 mg/kg/injection, schedule: Q08DX002 (ip), vehicle: saline
  survivor count: 8 of 8
dose: 1000.0 mg/kg/injection, schedule: Q01DX009 (ip), vehicle: water
  survivor count: 0 of 10 and 5 of 10
dose: 1000.0 mg/kg/injection, schedule: Q04DX003 (ip), vehicle: water
  survivor count: 7 of 10 and 10 of 10
dose: 1024.0 mg/kg/injection, schedule: Q01DX001 (ip), vehicle: saline
  survivor count: 5 of 8
dose: 1024.0 mg/kg/injection, schedule: Q01DX009 (oral), vehicle: saline
  survivor count: 0 of 8
dose: 1024.0 mg/kg/injection, schedule: Q04DX003 (ip), vehicle: saline
  survivor count: 7 of 8
dose: 1024.0 mg/kg/injection, schedule: Q04DX003 (oral), vehicle: saline
  survivor count: 6 of 8
dose: 1024.0 mg/kg/injection, schedule: Q04DX003 (sc), vehicle: saline
  survivor count: 7 of 8
dose: 1024.0 mg/kg/injection, schedule: Q08DX002 (ip), vehicle: saline
  survivor count: 8 of 8
dose: 2048.0 mg/kg/injection, schedule: Q01DX001 (ip), vehicle: saline
  survivor count: 0 of 8
dose: 2048.0 mg/kg/injection, schedule: Q01DX009 (oral), vehicle: saline
  survivor count: 0 of 8
dose: 2048.0 mg/kg/injection, schedule: Q04DX003 (ip), vehicle: saline
  survivor count: 0 of 8
dose: 2048.0 mg/kg/injection, schedule: Q04DX003 (oral), vehicle: saline
  survivor count: 2 of 8
dose: 2048.0 mg/kg/injection, schedule: Q04DX003 (sc), vehicle: saline
  survivor count: 0 of 8
dose: 2048.0 mg/kg/injection, schedule: Q08DX002 (ip), vehicle: saline
  survivor count: 0 of 8

## O=P1(NCCCl)OCCCN1CCCl (centres undefined)
dose: 133.0 mg/kg/injection, schedule: Q01DX001 (ip), vehicle: saline
  survivor count: 10 of 10
dose: 200.0 mg/kg/injection, schedule: Q01DX001 (ip), vehicle: saline
  survivor count: 10 of 10
dose: 300.0 mg/kg/injection, schedule: Q01DX001 (ip), vehicle: saline
  survivor count: 10 of 10
dose: 450.0 mg/kg/injection, schedule: Q01DX001 (ip), vehicle: saline
  survivor count: 10 of 10
